The conditions of the data set: both, human, plasma, oral, 40 mg.

What is called AUC(0-inf) is the area under the concentration-time curve extrapolated to infinity. In general, AUC(0-t) refers to the area under the concentration-time curve up to a stated or last time point. A low value points to low exposure. Broadly, the Cmax is the highest concentration seen after dosing. `CC(C)c1c(C(=O)Nc2ccccc2)c(-c2ccccc2)c(-c2ccc(F)cc2)n1CC[C@@H](O)C[C@@H](O)CC(=O)O` [Atorvastatin]: the AUC(0-inf) came out at 0.0808 µg·h/mL, the AUC(0-t) stood at 0.0788 µg·h/mL and the peak level (Cmax) was 0.0197 µg/mL.

For the origin of these results see publication PMC9293227 (Clinical Pharmacology in Drug Development, 2021).
